From US20090092614A1
These are yes or no findings as the source states them, for the method shown. Some results given as binding are weak or reduced against the parent protein; the word gives no strength.

The chains behind the UniProt entries cited, without tags or fusion partners. Where a name states a change or a piece, a line headed by the entry shows the natural chain unless it says otherwise.
UniProt P08069: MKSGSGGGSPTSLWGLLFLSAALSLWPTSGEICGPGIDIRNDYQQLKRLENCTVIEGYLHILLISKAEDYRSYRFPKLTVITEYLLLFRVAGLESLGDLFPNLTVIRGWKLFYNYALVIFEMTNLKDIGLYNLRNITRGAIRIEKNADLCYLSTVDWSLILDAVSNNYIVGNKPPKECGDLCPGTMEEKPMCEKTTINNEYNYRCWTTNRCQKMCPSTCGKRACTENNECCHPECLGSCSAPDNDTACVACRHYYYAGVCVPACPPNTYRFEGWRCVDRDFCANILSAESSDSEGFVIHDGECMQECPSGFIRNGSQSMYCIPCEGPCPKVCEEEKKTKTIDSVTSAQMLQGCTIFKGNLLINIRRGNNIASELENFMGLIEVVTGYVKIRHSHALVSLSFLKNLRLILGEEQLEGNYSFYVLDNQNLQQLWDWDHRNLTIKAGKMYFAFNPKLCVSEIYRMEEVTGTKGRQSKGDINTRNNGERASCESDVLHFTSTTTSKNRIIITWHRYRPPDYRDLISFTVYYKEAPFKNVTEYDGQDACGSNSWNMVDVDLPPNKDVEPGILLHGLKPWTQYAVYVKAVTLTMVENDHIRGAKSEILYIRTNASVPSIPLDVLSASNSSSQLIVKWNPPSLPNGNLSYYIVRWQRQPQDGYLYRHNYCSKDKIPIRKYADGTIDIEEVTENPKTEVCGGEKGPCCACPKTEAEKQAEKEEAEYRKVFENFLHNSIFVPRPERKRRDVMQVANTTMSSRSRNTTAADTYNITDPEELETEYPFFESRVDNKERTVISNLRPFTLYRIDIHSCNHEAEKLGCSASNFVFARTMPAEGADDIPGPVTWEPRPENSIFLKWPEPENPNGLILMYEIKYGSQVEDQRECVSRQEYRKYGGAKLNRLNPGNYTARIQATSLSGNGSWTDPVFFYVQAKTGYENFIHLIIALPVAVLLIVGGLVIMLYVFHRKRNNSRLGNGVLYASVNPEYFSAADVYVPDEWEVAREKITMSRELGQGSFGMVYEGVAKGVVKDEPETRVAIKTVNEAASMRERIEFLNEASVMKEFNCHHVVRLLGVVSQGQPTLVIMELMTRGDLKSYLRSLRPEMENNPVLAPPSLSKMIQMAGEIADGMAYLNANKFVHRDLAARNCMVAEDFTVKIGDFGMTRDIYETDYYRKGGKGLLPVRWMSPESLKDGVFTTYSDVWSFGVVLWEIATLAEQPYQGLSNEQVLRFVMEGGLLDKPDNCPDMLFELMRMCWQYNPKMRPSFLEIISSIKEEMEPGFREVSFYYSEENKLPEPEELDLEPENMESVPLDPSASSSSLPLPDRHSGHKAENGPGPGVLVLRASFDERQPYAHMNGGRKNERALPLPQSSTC

Tests used:
[1] = target: human IGF-1R(1-903)-Fc (human) (UniProt P08069); test: competition ELISA, 320 nM human IGF-2 His binding to biotinylated hIGF-1R-Fc, anti-His-HRP
[2] = target: human IGF-1R(1-903)-Fc (human) (UniProt P08069); test: ELISA
[3] = target: human IGF-1R (full length, on cells) (human) (UniProt P08069); test: flow cytometry
[4] = target: human IGF-1R (full length, on cells) (human) (UniProt P08069); test: flow cytometry, IGF-1R/3T3 transfectants against 3T3 parent cells
[5] = target: hIGF-1R-Fc mutant SD019 (human) (UniProt P08069); test: KD grade of mutant hIGF-1R-Fc; NE = KD within 2.5-fold of WT
[6] = target: human IGF-1R(1-903)-Fc (human) (UniProt P08069); test: ELISA on plate-coated soluble IGF-1R-Fc, goat anti-human kappa-HRP
[7] = target: human IGF-1R (full length, on cells) (human) (UniProt P08069); test: flow cytometry titration on MCF-7 cells
[8] = target: human IGF-1R(1-903)-Fc (human) (UniProt P08069); test: competition ELISA, 320 nM human IGF-1 His binding to biotinylated hIGF-1R-Fc, anti-His-HRP
[9] = target: human IGF-1R(1-903)-Fc (human) (UniProt P08069); test: solid-phase RIA, inhibition of 125I-IGF-2 binding to immobilized IGF-1R-Fc

Measured: binding

B1: P1E2 (chimeric antibody) (antibody, V domains shown)
VH: QVQLQQPGAELVKPGASVKLSCKASGYTFTSYWMHWVKQRPGQGLEWIGEINPTYGRSNYNEKFKSKATLTVDKSSSTAYMQLSSLTSEDSAVYYCARLVRLRYFDVWGAGTTVTVSS
VL: DIVMTQAAFSNPVTLGTSASISCRSSKSLLHSNGITYLYWYLQKPGQSPQLLIYQMSNLASGVPDRFSSSGSGTDFTLRISRVEAEDVGVYYCAQNLELPYTFGGGTKLEIK
binds: [1]

B2: M14-C03.G4.P.agly (antibody, human IgG4 S228P, kappa, V domains shown)
VH: EVQLLESGGGLVQPGGSLRLSCAASGFTFSKYMMSWVRQAPGKGLEWVSYISPSGGLTWYADSVKGRFTISRDNSKNTLYLQMNSLRAEDTAVYYCARDGARGYGMDVWGQGTTVTVSS
VL: DIQMTQSPATLSLSPGERATLSCRASQSVSSYLAWYQQKPGQAPRLLIYDASNRATGIPARFSGSGSGTDFTLTISSLEPEDFAVYYCQQRSNWPPEVTFGPGTKVDIKR
binds: all assays above
